Results as given in patent US6919208B2, “Methods and compositions for enhancing the delivery of a nucleic acid to a cell” (The Children's Hospital of Philadelphia, priority 2000, dated 2005).

System: A10 cells
Assay: p-EGFP-N3 (GFP) plasmid transfection of A10 cells on native type I collagen with cytochalasin D added after lipofection
Type: cell-based, Rat
Conditions: 1 nanomolar
Procedure: A10 cells were grown on native type I collagen. […] Immediately after lipofection, cytochalasin D at a final concentration of 1 nanomolar was either added to cells for thirty minutes, added to cells for an overnight incubation or not added at all (control). The fluorescence of control cells, cells treated with cytochalasin D for thirty minutes, and cells treated with cytochalasin D for an overnight incubation (FIGS. 6A, 6B and 6C, respectively) was assessed. Bright field micrographs were also taken of the control cells, cells treated with cytochalasin D for thirty minutes, and cells treated with cytochalasin D for an overnight incubation (FIGS. 7A, 7B and 7C, respectively).

C=C1[C@@H](C)[C@H]2[C@H](Cc3ccccc3)NC(=O)[C@]23[C@H](OC(C)=O)/C=C/[C@@](C)(O)C(=O)[C@@H](C)C/C=C/[C@H]3[C@@H]1O [cytochalasin D]
cell shape (bright field micrograph) (overnight exposure): more rounded cell shape
cell shape (bright field micrograph) (thirty minute exposure): marked change in cell shape
